The values below come from paper PMC3747139 (PLoS ONE, 2013).

The test system of this data set is HQF DNA d(TTAGGG)4. Put plainly: Isothermal titration calorimetry. Format: binding, human. The note with it: ITC; for ΔG2: mode-2, 25°C. The procedure: When quadruplex DNA melts to form ssDNA structure, SG fluorescence intensity gradually reduces as SG has no binding to ssDNA. Each time, 5 µM of HQF DNA [d(T2AG3)4)], 5 µM of dsDNA (prepared by mixing equal concentration of poly-dA-dT and poly-dT-dA), 5 µM ssDNA ( poly dT alone) and 1 µM of each ligand was incubated at 4°C for 16 h, and used for melting studies. […] Affinity, stoichiometry and thermodynamic parameters for quadruplex-ligand complex were studied with 60 µM of ligand and 10 µM of HQF DNA using Microcal VP-ITC (Northampton, MA, USA). Ligand addition to G-quadruplex DNA was made every 180 seconds. Titration experiments were performed thrice and blank correction was made each time to minimize error.
On integrating the heats produced per injection, with respect to time and conversion to per mole basis, the binding isotherm (Figure 8A) corresponding to each ligand was obtained. […] After making blank correction, the heat data was fitted with “two-independent sites” model and analyzed using Origin 7.1 to calculate thermodynamic parameters.

Take `Cc1cn([C@H]2C[C@H](N=[N+]=[N-])[C@@H](CO)O2)c(=O)[nH]c1=O` [Ligand L1, 1-(4-azido 5-(hydroxylmethyl)tetrahydrofuran-2-yl)-5-methyl pyrimidi-ne-2,4(1H,3H)-dione, reference compound]: the ΔG2 is listed as -8.11 kcal/mol. Moreover, the “-TΔS1” value (mode-1, 25°C) was -8.25 kcal/mol.

`Cc1cn([C@H]2C[C@H](n3cc(-c4ccccc4)nn3)[C@@H](CO)O2)c(=O)[nH]c1=O` [Ligand L2] showed a ΔG2 of -8.28 kcal/mol.

On to `Cc1cn([C@H]2C[C@H](n3cc(-c4ccc(Cl)cc4)nn3)[C@@H](CO)O2)c(=O)[nH]c1=O` [Ligand L3, 1-(4-(4-(4-chlorophenly)-1H-1,2,3-triazole-1-yl)-5-(hydroxymethyl)tetrahydrofuran-2-yl)-5-methylpyrimidine-2,3(1H,3H)-dione], for which the ΔG2 was -8.41 kcal/mol.
